We go through one substance from paper doi:10.1101/2020.05.31.126581.

By UniProt entry, the sequences of proteins in these tests, tags left out. Residues count along the entry.
UniProt P04792, residues 93-205: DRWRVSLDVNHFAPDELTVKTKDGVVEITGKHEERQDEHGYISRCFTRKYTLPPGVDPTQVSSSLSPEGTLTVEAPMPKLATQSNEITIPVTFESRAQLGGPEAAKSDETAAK

The experiment deals with T1, scavenger receptor AI (human (endogenous in THP-1)) (UniProt P21757).
T1 sequence: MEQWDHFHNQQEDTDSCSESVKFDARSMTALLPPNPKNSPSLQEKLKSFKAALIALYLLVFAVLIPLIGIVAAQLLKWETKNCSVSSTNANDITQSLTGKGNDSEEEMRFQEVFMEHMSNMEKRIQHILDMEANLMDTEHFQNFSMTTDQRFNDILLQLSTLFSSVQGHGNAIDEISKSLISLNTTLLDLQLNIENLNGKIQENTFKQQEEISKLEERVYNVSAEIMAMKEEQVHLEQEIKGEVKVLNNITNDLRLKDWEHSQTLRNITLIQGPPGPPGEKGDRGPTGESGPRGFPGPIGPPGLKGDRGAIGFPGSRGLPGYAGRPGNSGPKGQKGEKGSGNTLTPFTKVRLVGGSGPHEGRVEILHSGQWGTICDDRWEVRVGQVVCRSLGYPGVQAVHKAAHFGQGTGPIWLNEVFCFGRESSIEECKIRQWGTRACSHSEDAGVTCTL
The experiment can be described thus: ELISA.

No constants are given. Whether binding was seen depends on the method and setting.

Turning to “C-terminal, biologically inactive (rC1) fragment of HSP27 (AA93-205) (from UniProt P04792 93-205) (domain or fragment)”, the binding result is listed as “no binding (tested: 1 μg/ml)”.
